According to US20120076782A1 (MorphoSys, published 2012):
No constants are given. Whether binding was seen depends on the method and setting.

B1: MOR03079 human-mouse chimeric IgG2a (antibody, V domains shown)
VH: QVQLVESGGGLVQPGGSLRLSCAASGFTFSNYGMHWVRQAPGKGLEWVSNIRSDGSWTYYADSVKGRFTISRDNSKNTLYLQMNSLRAEDTAVYYCARRYWSKSHASVTDYWGQGTLVTVSS
VL: DIQMTQSPSSLSASVGDRVTITCRASQDISAFLNWYQQKPGKAPKLLIYKVSNLQSGVPSRFSGSGSGTDFTLTISSLQPEDFATYYCQQAYSGSITFGQGTKVEIKR
notes: Chimeric IgG2a: human variable regions of MOR03079 fused to murine Fc gamma 2a constant regions; also called MAb#2 (chimeric: human variable domaine/murine Fc 2a); mu03079
B2: MOR03077 human IgG1 (antibody, V domains shown)
VH: QVQLVQSGAEVKKPGASVKVSCKASGYTFTSYSINWVRQAPGQGLEWMGYIDPNRGNTNYAQKFQGRVTMTRDTSISTAYMELSSLRSEDTAVYYCAREYIYFIHGMLDFWGQGTLVTVSS
VL: DIVMTQSPLSLPVTPGEPASISCRSSQSLLFIDGNNYLNWYLQKPGQSPQLLIYLGSNRASGVPDRFSGSGSGTDFTLKISRVEAEDVGVYYCQQYSSKSATFGQGTKVEIKR
notes: also called MAb#1
B3: MOR03079 human IgG1 (antibody, V domains shown)
VH: B1 VH
VL: B1 VL
notes: also called MAb#2
B4: MOR03077 human-mouse chimeric IgG2a (antibody, V domains shown)
VH: B2 VH
VL: B2 VL

Key:
lysozyme [1] = assay: ELISA, antigen coated at 5 µg/ml, fluorescence read-out (FIG. 12)
lysozyme [2] = assay: ELISA; antigen coated at 5 µg/ml, anti-murine Fab alkaline phosphatase conjugate, fluorescence Ex/Em 430/535 nm
lysozyme [3] = assay: ELISA; antigen coated at 5 µg/ml, anti-human Fab alkaline phosphatase conjugate, fluorescence Ex/Em 430/535 nm

Binder	binding (lysozyme [1])	binding (lysozyme [2])	binding (lysozyme [3])
B1	no binding (tested: 10 µg/ml antibody)	no binding (tested: 10 µg/ml)	–
B2	no binding (tested: 10 µg/ml antibody)	–	no binding (tested: 10 µg/ml)
B3	no binding (tested: 10 µg/ml antibody)	–	no binding (tested: 10 µg/ml)
B4	no binding (tested: 10 µg/ml antibody)	–	–
